Results reported in paper PMC11253882.
No constants are given. Whether binding was seen depends on the method and setting. In cells and extracts the contact can be indirect. Some entries that bind do so weakly or less than the wild type.

Amino acid sequences for entries named in this document (tags omitted).
UniProt D4A523: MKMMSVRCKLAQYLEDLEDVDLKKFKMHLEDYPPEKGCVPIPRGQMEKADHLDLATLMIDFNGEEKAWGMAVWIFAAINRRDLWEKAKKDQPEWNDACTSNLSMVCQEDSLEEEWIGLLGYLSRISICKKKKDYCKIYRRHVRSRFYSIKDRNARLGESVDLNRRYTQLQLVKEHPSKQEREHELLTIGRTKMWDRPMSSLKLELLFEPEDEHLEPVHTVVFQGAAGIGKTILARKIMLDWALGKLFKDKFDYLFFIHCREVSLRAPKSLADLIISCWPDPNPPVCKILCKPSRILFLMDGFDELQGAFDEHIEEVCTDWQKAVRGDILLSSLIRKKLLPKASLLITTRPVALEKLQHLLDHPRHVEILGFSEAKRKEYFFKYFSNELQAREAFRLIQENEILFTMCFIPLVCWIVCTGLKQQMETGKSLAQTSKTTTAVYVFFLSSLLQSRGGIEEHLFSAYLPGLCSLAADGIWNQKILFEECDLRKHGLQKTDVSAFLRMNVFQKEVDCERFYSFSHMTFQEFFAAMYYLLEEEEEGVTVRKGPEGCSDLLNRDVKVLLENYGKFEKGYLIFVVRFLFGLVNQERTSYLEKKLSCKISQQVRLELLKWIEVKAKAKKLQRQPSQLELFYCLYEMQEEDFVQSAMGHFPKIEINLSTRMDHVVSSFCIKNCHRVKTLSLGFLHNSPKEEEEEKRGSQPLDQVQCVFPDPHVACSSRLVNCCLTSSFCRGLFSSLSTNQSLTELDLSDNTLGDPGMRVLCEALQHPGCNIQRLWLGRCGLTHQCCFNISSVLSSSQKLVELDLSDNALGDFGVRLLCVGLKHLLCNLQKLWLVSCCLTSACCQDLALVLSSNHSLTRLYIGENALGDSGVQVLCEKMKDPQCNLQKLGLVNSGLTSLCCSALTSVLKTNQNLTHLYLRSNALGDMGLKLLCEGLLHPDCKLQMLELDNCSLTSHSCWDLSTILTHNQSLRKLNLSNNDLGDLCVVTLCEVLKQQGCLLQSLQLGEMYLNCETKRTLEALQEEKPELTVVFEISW

Target: T1, Farnesoid X receptor (FXR) (rat (endogenous in IEC-6)) (UniProt Q62735)
T1 sequence: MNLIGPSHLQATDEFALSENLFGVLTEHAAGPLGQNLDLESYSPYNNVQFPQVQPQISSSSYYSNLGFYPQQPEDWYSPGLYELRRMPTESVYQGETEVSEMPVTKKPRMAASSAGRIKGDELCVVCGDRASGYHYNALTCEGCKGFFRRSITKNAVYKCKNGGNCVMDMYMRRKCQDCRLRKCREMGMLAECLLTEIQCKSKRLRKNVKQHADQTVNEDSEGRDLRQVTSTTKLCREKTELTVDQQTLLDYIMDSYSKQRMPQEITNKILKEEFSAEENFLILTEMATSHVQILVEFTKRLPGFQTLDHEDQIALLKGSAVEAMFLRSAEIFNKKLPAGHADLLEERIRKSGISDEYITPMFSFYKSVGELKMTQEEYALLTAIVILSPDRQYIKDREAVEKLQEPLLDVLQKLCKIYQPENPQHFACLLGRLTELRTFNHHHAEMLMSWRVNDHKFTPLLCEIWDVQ
Experiment: co-IP; 100 ug of IEC-6 lysate incubated overnight at 4°C with mouse anti-FXR monoclonal, rabbit anti-NLRP3 polyclonal or control IgG; Protein A/G PLUS-Agarose 5 h at 4°C; four washes with PBS; western blot

binding: binds
Substance: NLRP3 (from UniProt D4A523 1-1035)
